Measurements as given in PubChem BioAssay AID1487 (National Center for Advancing Translational Sciences (NCATS), 2009).
This is one part of the list. Further columns of the screen follow, without active or inactive calls. Compounds called inactive in the main read-out are mostly missing here. The note in brackets gives the kind of curve behind each potency; many fits are weak.

Experiment: qHTS Assay for Modulators of Lamin A Splicing
Settings: HeLa LMNA splicing GFP/RFP minigene ratio, 48 h
Method in brief: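 S3 HeLa stable clones carrying a lamin A-EGFP splicing minigene plus DsRed2 were seeded at 600 cells/well in Opti-MEM with 2% FBS, pin-dosed and incubated 48 h at 37°C. Acumen cytometry (488 nm) gave the GFP/RFP total-intensity ratio.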

[1] = measured here: RFP viability control channel
[2] = measured here: GFP splicing reporter channel

| Compound | AC50 [1] | AC50 [2] |
| --- | --- | --- |
| Cn1c(-c2ccc(Cl)cc2)ccc(C#N)c1=O | 22.4 µM [falling, single point] |  |
| CC(C)(C)NC(=O)c1cccc(NC(=O)c2ccc(NC(=O)c3ccco3)cc2)c1 | 20 µM [rising, single point] |  |
| COc1ccccc1CCn1c(=O)c(-c2cn(C)c3ccccc23)nc2cncnc21 | 5.01 µM [falling, full curve] | 5.01 µM [falling, full curve] |
| CC1(C)CC(=O)C2=C(C1)N1C(=C(C#N)C2c2ccc(Cl)cc2)N=C(N)c2ccccc21 (stereo not given) | 35.5 µM [rising, single point] |  |
| CCCNC(=O)COC(=O)c1ccccc1OCC(=O)Nc1ccc(Br)cc1 |  | 2.51 µM [rising, partial curve, poor fit] |
| NC(=O)C1CCN(Cc2nc3c(Br)cc(Br)cc3c(=O)[nH]2)CC1 |  | 5.62 µM [falling, single point] |
| CN(C)C1NC(=O)c2cc(-c3ccccc3)sc2N1 (stereo not given) | 1.58 µM [rising, full curve] | 3.55 µM [rising, partial curve] |
| CC(=O)C(Cl)C(=O)Nc1ccccc1 (stereo not given) | 0.891 µM [rising, full curve, poor fit] |  |
| Cc1cc(C(=O)NCc2nc(-c3ccccc3)no2)ccc1[N+](=O)[O-] |  | 2.51 µM [rising, partial curve, poor fit] |
| CCCc1cc(=O)[nH]c(SCc2nc(-c3ccc(OCC)cc3)no2)n1 |  | 0.355 µM [rising, single point] |
| Cc1ccc(-n2ncc3c(NCc4cccnc4)ncnc32)c(C)c1 | 6.31 µM [rising, full curve] | 3.16 µM [rising, full curve, poor fit] |
| O=C(NC(=S)NNC(=O)c1cc2ccccc2cc1O)c1ccco1 | 35.5 µM [rising, single point] | 4.47 µM [rising, partial curve] |
| O=C(NCCN1CCOCC1)c1ccc2c(c1)N(Cc1c(F)cccc1Cl)C(=O)c1ccccc1S2 |  | 35.5 µM [falling, single point] |
| Cc1ccc(-c2nnc(SCc3ccccc3)o2)cc1 |  | 0.0355 µM [rising, full curve, poor fit] |
| CC(=O)c1cccc(NC(=O)Nc2cnn(Cc3ccc(F)cc3)c2)c1 | 35.5 µM [rising, single point] |  |
| Cc1ccc(NC(=O)CSc2nnc(-c3cccs3)o2)cc1S(=O)(=O)N1CCCCC1 | 12.6 µM [rising, single point] |  |
| COC(=O)/C=C/C(=O)Nc1cccnc1 | 6.31 µM [falling, single point] |  |
| S=C(Nc1ccccc1)Nc1nc2ccccc2n1CCOc1ccccc1 | 35.5 µM [falling, single point] | 35.5 µM [falling, single point] |
| CCOc1ccccc1NC(=O)Cn1c(=O)nc(-c2ccccc2F)c2cc(Cl)ccc21 | 0.0631 µM [rising, full curve, poor fit] |  |
| COc1ccc(/C=C2\SC(=O)NC2=S)cc1OC | 17.8 µM [rising, partial curve, poor fit] |  |
| CCn1c(/C=N/NC(=O)c2ccc(OC)cc2)nc2ccccc21 | 22.4 µM [rising, partial curve] | 14.1 µM [rising, partial curve, poor fit] |
| c1ccc(CNc2cc(-c3ccoc3)ncn2)cc1 |  | 22.4 µM [falling, partial curve, poor fit] |
| OC(CN1C2=NCCN2c2ccccc21)c1ccccc1 (stereo not given) | 14.1 µM [rising, partial curve, poor fit] |  |
| O=C(Nc1nc(-c2cccs2)cs1)c1cccc(S(=O)(=O)N2CCCCCC2)c1 | 35.5 µM [rising, single point] | 35.5 µM [rising, single point] |
| Cc1cc(C)c(C)c(S(=O)(=O)Nc2ccccc2C(=O)NCCCn2ccnc2)c1C | 31.6 µM [rising, single point] |  |
| O=C(CCn1cnc2onc(-c3ccc(F)cc3)c2c1=O)Nc1cccc(C(F)(F)F)c1 |  | 11.2 µM [falling, single point] |
| CNS(=O)(=O)c1ccc(NCC2COc3ccccc3O2)c([N+](=O)[O-])c1 (stereo not given) | 11.2 µM [rising, single point] |  |
| Cc1ccc(S(=O)(=O)N(C)CC(=O)O/N=C(\N)c2ccc([N+](=O)[O-])cc2)cc1 | 35.5 µM [rising, single point] |  |

| Compound | AC50 [1] | AC50 [2] |
| --- | --- | --- |
| Cc1ccc(CNC(=O)C2CCN(C(=O)N3CC(C)Oc4ccc(Cl)cc43)CC2)cc1 (stereo not given) | 31.6 µM [rising, single point] | 14.1 µM [rising, partial curve] |
| Cc1ccc(C)c(N2CCN(CCCNC(=O)c3cnn(-c4cccc(Cl)c4)c3C3CCN(C(=O)OC(C)(C)C)CC3)CC2)c1 | 35.5 µM [falling, partial curve] | 35.5 µM [falling, partial curve] |
| CCn1nc(C(=O)O)c(=O)c2cc3c(cc21)OCO3 | 0.00501 µM [rising, full curve, poor fit] | 0.0891 µM [falling, full curve, poor fit] |
| Cc1nn(-c2ccccc2)c(Cl)c1C(=O)OC(C)C(=O)NC(=O)NC1CCCCC1 (stereo not given) | 35.5 µM [rising, single point] |  |
| O=C(Nc1ccn(Cc2c(F)c(F)cc(F)c2F)n1)c1ccc(COc2ccccc2Cl)cc1 | 20 µM [rising, single point] |  |
| Cc1ccc(C(=O)NCC(=O)OCC(=O)NCCc2ccccc2)s1 | 1.78 µM [falling, full curve, poor fit] |  |
| COc1ccc(CCNc2oc(COc3ccccc3)nc2C#N)cc1 | 31.6 µM [rising, single point] | 22.4 µM [rising, single point] |
| Cc1cc2cc(CN3C(=O)c4ccccc4C3=O)ccc2n1C |  | 11.2 µM [rising, partial curve] |
| COC(=O)c1ccc(CSc2ccc3nnc(-c4ccccc4)n3n2)o1 | 0.126 µM [rising, partial curve, poor fit] |  |
| CCOC(=O)c1cnc2ccc(OCC)cc2c1NCc1cccnc1 | 14.1 µM [rising, single point] |  |
| COC(=O)Cc1ccc(NC(=S)Nc2ccccn2)cc1 | 3.98 µM [falling, full curve, poor fit] | 6.31 µM [falling, single point] |
| O=C(CSc1nc2[nH]ncc2c(=O)n1-c1ccccc1)c1ccc2c(c1)OCCO2 | 35.5 µM [rising, single point] |  |
| C=C(C)C1Cc2cc3ccc(=O)oc3cc2O1 (stereo not given) | 0.00708 µM [rising, full curve, poor fit] |  |
| COc1ccc(S(=O)(=O)Nc2cccc(-c3ccc(N4CCCC4)nn3)c2)cc1F |  | 7.94 µM [falling, partial curve, poor fit] |
| O=C(COC(=O)c1c2c(nc3ccccc13)/C(=C\c1cccs1)CCC2)Nc1ccccc1 | 20 µM [rising, single point] | 11.2 µM [rising, single point] |
| COc1cc(/C=C(/C#N)c2nc3ccccc3[nH]2)ccc1OCC(=O)Nc1ccccc1C(C)C | 1 µM [falling, partial curve] | 20 µM [falling, single point] |
| O=C(CCn1c(SCC(=O)NCc2ccco2)nc2ccccc2c1=O)NCCc1ccccc1 | 7.08 µM [rising, partial curve] |  |
| CCc1nc(NCc2ccco2)c2oc3ccccc3c2n1 | 11.2 µM [rising, single point] | 8.91 µM [rising, partial curve, poor fit] |
| O=C(O)C1OC(Oc2c(-c3ccc(O)c(O)c3)oc3cc(O)cc(O)c3c2=O)C(O)C(O)C1O (stereo not given) | 12.6 µM [rising, single point] |  |
| Cc1oc2c(c1C(=O)NCc1ccccc1F)C1=NCCN1C=N2 |  | 0.0251 µM [falling, full curve, poor fit] |
| O=C(NCC(c1ccc2c(c1)OCO2)N1CCN(c2ccccc2)CC1)C(=O)Nc1ccccc1F (stereo not given) |  | 0.224 µM [falling, full curve] |
| Cc1cc(C(=O)OCC(=O)NCc2ccco2)c(C)n1-c1ccc(F)cc1 | 3.98 µM [rising, full curve] | 11.2 µM [rising, partial curve, poor fit] |
| CCCc1nc(SCC(=O)N2CCc3ccccc3C2)c2ccccc2n1 | 35.5 µM [falling, single point] | 14.1 µM [falling, single point] |
| O=C(/C=C/c1cccc2ccccc12)c1ccncc1 | 2.51 µM [rising, partial curve, poor fit] | 35.5 µM [falling, single point] |
| CN(C1=C(NC(=O)c2ccccc2)C(=O)c2ccccc2C1=O)C1CCS(=O)(=O)C1 (stereo not given) | 35.5 µM [falling, partial curve] | 35.5 µM [falling, partial curve] |
| COc1ccccc1NC(=O)CSc1nnc(-c2ccoc2C)n1CCc1ccccc1 | 5.01 µM [rising, partial curve] | 2.24 µM [rising, full curve, poor fit] |
| Cc1ccc(NC(=O)CSCc2cc(=O)c3ccccc3[nH]2)c(C)c1 |  | 0.282 µM [rising, full curve] |

Filtered by structure: the compounds so far with a tert-butyl group (2)

| Compound | AC50 [1] | AC50 [2] |
| --- | --- | --- |
| CC(C)(C)NC(=O)c1cccc(NC(=O)c2ccc(NC(=O)c3ccco3)cc2)c1 | 20 µM [rising, single point] |  |
| Cc1ccc(C)c(N2CCN(CCCNC(=O)c3cnn(-c4cccc(Cl)c4)c3C3CCN(C(=O)OC(C)(C)C)CC3)CC2)c1 | 35.5 µM [falling, partial curve] | 35.5 µM [falling, partial curve] |
